Test results published in the supplement of paper PMC10849652.
The other results are listed elsewhere or left out.

Protein sequences, listed by entry. Tags and fused reporters are not part of them. Lines headed by an entry give the natural chain unless they say otherwise; changes in a name come on top.
UniProt Q6AI08: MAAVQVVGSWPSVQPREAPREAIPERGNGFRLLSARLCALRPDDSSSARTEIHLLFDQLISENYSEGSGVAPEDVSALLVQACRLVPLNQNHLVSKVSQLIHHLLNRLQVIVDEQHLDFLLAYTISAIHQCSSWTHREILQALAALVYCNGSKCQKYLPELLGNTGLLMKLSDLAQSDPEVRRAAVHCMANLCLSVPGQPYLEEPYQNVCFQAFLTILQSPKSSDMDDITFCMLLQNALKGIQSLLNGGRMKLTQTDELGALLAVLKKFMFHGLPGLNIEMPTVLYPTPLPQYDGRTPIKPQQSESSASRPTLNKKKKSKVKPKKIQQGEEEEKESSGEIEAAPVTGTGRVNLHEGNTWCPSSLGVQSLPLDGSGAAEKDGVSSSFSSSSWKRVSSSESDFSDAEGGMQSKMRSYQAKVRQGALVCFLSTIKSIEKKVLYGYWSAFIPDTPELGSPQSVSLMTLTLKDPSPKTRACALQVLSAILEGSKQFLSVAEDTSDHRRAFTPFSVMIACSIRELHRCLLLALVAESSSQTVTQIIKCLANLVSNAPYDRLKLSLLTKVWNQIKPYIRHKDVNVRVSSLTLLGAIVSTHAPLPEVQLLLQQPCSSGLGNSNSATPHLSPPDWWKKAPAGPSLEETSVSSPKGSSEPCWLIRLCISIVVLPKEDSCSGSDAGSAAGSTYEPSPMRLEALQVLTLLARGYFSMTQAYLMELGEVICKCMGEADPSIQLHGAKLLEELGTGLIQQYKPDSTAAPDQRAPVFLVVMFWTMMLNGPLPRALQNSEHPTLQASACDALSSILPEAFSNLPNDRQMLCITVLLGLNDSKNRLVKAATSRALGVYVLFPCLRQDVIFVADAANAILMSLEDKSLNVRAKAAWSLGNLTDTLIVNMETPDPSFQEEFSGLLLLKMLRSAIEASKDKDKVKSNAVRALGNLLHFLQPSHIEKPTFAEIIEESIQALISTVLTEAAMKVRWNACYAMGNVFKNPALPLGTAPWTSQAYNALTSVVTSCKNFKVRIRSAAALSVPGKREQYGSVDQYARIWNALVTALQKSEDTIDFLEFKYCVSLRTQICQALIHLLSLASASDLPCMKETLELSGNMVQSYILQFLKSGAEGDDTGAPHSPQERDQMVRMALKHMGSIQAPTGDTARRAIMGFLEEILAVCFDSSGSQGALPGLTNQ
UniProt P56524: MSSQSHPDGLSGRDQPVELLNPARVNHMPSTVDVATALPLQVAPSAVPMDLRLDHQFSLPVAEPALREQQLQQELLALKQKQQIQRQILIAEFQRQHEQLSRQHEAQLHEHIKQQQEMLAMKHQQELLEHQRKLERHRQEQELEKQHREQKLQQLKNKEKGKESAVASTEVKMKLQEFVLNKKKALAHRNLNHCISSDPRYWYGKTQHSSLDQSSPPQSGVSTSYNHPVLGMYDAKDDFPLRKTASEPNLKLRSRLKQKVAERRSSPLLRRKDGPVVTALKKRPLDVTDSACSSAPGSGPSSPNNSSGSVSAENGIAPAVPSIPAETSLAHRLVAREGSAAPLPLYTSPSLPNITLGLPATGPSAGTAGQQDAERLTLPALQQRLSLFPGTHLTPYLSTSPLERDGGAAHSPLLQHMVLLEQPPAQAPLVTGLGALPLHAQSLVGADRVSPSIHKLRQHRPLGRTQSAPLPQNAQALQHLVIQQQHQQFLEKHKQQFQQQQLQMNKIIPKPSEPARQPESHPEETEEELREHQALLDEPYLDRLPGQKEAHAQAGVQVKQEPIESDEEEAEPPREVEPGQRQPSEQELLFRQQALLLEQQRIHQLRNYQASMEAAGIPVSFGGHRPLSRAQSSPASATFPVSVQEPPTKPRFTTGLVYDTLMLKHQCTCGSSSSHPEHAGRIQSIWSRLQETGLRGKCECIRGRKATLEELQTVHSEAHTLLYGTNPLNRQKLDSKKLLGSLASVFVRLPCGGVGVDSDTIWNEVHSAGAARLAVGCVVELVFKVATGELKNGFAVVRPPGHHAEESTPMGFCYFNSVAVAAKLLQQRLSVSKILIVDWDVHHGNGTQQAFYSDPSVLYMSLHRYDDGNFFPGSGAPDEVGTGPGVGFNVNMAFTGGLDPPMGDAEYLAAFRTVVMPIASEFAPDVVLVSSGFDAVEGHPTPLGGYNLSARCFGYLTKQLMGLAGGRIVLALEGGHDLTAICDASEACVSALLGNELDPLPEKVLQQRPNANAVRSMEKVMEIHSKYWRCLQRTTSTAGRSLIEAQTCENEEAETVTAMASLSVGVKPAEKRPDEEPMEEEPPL
UniProt Q03013: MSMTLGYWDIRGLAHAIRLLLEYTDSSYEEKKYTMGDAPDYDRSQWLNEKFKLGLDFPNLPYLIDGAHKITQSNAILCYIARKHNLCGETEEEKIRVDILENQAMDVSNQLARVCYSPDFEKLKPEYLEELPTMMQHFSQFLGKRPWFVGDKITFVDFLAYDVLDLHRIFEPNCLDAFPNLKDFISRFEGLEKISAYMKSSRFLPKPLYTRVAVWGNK
UniProt P51610: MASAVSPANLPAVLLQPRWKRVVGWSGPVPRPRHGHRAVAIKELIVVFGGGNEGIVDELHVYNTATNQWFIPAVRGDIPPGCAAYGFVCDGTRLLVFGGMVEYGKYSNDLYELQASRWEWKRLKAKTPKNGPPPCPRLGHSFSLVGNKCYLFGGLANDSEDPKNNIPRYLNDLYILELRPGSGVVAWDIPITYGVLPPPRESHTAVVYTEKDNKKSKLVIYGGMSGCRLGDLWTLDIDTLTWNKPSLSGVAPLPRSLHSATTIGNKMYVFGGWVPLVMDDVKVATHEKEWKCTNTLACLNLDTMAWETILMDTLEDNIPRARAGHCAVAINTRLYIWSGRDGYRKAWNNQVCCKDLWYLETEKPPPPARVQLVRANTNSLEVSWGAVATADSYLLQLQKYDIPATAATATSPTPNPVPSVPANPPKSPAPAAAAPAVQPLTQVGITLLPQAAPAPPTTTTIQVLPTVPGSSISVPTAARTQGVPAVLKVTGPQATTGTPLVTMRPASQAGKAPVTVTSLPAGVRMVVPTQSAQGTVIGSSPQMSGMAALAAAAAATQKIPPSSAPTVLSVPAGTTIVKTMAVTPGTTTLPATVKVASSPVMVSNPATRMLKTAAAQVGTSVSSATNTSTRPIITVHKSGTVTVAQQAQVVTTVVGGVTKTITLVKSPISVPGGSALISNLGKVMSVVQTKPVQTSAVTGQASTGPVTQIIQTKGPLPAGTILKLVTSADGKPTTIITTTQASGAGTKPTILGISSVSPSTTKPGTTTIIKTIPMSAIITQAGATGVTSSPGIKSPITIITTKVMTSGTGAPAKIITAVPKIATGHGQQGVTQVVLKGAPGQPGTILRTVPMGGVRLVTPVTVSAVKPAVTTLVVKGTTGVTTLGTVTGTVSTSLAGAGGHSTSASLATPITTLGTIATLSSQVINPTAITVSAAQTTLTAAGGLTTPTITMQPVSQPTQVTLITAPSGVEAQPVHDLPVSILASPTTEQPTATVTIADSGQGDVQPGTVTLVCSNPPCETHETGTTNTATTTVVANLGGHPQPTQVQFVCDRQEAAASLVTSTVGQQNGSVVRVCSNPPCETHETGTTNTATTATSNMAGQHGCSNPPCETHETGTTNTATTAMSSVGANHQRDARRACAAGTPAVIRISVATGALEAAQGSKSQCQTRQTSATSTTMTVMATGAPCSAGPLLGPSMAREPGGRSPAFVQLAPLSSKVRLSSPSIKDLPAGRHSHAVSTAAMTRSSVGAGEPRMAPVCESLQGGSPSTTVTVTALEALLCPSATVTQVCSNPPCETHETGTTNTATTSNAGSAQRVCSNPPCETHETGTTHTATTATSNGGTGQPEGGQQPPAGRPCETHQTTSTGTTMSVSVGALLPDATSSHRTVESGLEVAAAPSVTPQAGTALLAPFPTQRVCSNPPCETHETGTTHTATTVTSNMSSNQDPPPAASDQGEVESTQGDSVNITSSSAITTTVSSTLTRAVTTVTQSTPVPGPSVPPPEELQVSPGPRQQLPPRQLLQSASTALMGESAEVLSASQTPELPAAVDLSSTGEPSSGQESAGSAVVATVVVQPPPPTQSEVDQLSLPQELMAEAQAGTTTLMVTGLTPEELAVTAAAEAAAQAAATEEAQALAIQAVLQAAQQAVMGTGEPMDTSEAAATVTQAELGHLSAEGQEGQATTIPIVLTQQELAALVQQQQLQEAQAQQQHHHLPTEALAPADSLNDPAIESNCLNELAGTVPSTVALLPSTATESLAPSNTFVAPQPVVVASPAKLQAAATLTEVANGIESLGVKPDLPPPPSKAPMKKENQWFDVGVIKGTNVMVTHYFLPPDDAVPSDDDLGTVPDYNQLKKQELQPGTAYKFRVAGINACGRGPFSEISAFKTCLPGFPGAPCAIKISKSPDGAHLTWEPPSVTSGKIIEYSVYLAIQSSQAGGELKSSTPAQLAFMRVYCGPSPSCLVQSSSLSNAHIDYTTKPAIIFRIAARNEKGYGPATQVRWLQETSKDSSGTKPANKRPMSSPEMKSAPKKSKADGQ
UniProt Q92522: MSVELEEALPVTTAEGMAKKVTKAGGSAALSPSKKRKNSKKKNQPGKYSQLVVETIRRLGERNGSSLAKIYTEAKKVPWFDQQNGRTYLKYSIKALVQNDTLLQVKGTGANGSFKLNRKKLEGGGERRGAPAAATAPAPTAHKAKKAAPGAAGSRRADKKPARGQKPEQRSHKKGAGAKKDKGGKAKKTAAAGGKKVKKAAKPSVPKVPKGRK
UniProt P46976: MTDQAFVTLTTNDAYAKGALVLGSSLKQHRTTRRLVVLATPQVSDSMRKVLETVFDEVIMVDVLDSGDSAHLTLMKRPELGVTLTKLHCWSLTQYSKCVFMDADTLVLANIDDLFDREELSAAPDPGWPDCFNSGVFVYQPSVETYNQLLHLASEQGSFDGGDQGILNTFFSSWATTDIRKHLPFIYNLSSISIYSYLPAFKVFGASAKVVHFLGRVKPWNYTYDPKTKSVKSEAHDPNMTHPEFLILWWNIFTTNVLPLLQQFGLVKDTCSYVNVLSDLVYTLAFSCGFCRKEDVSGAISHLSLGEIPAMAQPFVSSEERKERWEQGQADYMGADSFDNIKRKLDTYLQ
UniProt P04921: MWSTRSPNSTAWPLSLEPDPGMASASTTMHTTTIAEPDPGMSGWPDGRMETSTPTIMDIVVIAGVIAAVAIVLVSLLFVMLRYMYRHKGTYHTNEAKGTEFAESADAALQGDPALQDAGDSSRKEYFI
UniProt P0C0S5, whole entry, looked up: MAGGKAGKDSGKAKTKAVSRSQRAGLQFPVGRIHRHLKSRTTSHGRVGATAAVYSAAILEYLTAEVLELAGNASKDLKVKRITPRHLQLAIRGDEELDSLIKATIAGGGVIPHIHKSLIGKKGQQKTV
UniProt Q9UBN7: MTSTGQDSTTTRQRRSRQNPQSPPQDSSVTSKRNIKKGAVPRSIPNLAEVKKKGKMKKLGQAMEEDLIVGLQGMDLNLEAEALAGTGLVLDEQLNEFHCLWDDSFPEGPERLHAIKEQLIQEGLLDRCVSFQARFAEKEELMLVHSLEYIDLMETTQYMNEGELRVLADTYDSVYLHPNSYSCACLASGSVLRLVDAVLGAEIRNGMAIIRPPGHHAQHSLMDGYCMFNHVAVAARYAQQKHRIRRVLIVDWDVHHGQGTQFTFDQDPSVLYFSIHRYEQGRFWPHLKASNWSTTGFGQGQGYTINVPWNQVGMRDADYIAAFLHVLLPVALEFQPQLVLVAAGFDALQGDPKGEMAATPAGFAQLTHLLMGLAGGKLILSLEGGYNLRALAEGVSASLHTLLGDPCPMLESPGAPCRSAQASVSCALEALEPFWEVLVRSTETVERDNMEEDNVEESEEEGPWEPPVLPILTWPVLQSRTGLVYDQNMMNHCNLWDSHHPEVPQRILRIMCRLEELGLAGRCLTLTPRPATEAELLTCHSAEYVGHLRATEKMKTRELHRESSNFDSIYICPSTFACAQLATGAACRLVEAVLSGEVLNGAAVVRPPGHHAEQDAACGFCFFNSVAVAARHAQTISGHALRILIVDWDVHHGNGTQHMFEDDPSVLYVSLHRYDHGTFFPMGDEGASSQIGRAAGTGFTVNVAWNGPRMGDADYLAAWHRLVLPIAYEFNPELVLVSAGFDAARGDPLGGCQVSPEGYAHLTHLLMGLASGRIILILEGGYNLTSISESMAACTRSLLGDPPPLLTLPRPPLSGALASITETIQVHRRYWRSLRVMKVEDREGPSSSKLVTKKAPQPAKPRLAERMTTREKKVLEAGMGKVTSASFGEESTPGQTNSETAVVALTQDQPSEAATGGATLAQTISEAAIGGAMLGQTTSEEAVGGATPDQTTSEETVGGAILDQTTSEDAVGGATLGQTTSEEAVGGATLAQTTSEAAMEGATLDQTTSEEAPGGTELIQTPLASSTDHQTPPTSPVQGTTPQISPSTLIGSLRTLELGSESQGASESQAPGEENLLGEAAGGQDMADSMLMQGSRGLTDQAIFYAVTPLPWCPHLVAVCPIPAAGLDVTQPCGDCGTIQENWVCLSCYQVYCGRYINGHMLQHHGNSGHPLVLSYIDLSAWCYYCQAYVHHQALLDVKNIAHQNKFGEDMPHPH

What was measured:
Assay in all cases: log2 fold change, soluble protein after heating vs DMSO (PISA); higher = thermal stabilisation; K562 cells, 10 uM, 30 min; active = over 0.2 and 3.5 SD of the protein, either way, in both replicates (recomputed)
[1] = compound: CC1=C(C=C(C=C1)NC(=O)C2=CC(=CC=C2)C(C)(C)C#N)NC3=CC4=C(C=C3)N=CN(C4=O)C
Procedure, shortened: (§1)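 K562 cells at 2×10^6 cells/mL were exposed to 10 μM compound for 30 min, then aliquots were heated for 3 min across 48°C-58°C, pooled, and extracted in PBS containing 0.5% NP-40 at 4°C. The supernatant after 21,000xg for 90 min was taken as soluble protein and measured by TMTpro 16plex LC-MS/MS with channel sums equalised. Thermal stability is reported relative to control samples, with values from duplicates. Fold changes are given on a log2 scale.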

[2] = compound: CC1=C(C=C(C=C1)NC(=O)C2=CC(=CC=C2)N(C)C)NC(=O)C3=CC=C(C=C3)O
Procedure, shortened: as §1

[3] = compound: CC1=CC=C(C=C1)SC2=C3C=C(SC3=CN=C2)C(=O)N
Procedure, shortened: as §1

[4] = compound: CC1=NC(=CC=C1)C2=C(N=C(N2)C(C)(C)C)C3=CC4=NC=CN=C4C=C3
Procedure, shortened: as §1

Nexturastat A = compound: CCCCN(Cc1ccc(C(=O)NO)cc1)C(=O)Nc1ccccc1 [Nexturastat A]
Procedure, shortened: as §1

vemurafenib = compound: CCCS(=O)(=O)Nc1ccc(F)c(C(=O)c2c[nH]c3ncc(-c4ccc(Cl)cc4)cc23)c1F [vemurafenib]
Procedure, shortened: as §1

[5] = compound: CCCS(=O)(=O)Nc1ccc(F)c(C(=O)c2c[nH]c3ncc(Cl)cc23)c1F
Procedure, shortened: as §1

[6] = compound: CCCc1cc(C)[nH]c(=O)c1CNC(=O)c1cc(-c2ccnc(N3CCN(C)CC3)c2)cc2c1cnn2C(C)C
Procedure, shortened: as §1

givinostat = compound: CCN(CC)Cc1ccc2cc(COC(=O)Nc3ccc(C(=O)NO)cc3)ccc2c1 [givinostat]
Procedure, shortened: as §1

barasertib = compound: CCN(CCCOc1ccc2c(Nc3cc(CC(=O)Nc4cccc(F)c4)[nH]n3)ncnc2c1)CCOP(=O)(O)O [barasertib]
Procedure, shortened: as §1

[7] = compound: CC[C@@H]1C(=O)N(C)c2cnc(Nc3ccc(C(=O)NC4CCN(C)CC4)cc3OC)nc2N1C1CCCC1
Procedure, shortened: as §1

volasertib = compound: CC[C@@H]1C(=O)N(C)c2cnc(Nc3ccc(C(=O)N[C@H]4CC[C@H](N5CCN(CC6CC6)CC5)CC4)cc3OC)nc2N1C(C)C [volasertib]
Procedure, shortened: as §1

[8] = compound: CC[C@H](C)N1C=C(C2=C(C=C(C=C21)C3=CN=C(C=C3)N4CCNCC4)C(=O)NCC5=C(C=C(NC5=O)C)C)C
Procedure, shortened: as §1

epoxomicin = compound: CC[C@H](C)[C@@H](C(=O)N[C@@H]([C@@H](C)O)C(=O)N[C@@H](CC(C)C)C(=O)[C@]1(CO1)C)NC(=O)[C@H]([C@@H](C)CC)N(C)C(=O)C [epoxomicin]
Procedure, shortened: as §1

[9] = compound: CCn1c(C(=O)N(C2CC2)C2CC2)cc2c3c(ncn3C)c(Nc3cc(C)n(C)n3)nc21
Procedure, shortened: as §1

[10] = compound: CCn1cc(-c2ccnc3[nH]c(-c4cccc(CN(C)C)c4)cc23)c(-c2ccc(NC(=O)N(C)C)cc2)n1
Procedure, shortened: as §1

[11] = compound: CN(C)CC(=O)Nc1ccc2[nH]c(=O)c3ccccc3c2c1
Procedure, shortened: as §1

rosiglitazone = compound: CN(CCOC1=CC=C(C=C1)C[C@H]2C(=O)NC(=O)S2)C3=CC=CC=N3 (racemic) [rosiglitazone]
Procedure, shortened: as §1

[12] = compound: CN1C2=C(C3=C1C(=O)N(N=C3)CC4=CC(=CC=C4)N)SC(=C2)S(=O)C
Procedure, shortened: as §1

[13] = compound: CN1CCC(CNc2ccc3ncc(-c4cccc(OC(F)(F)F)c4)n3n2)CC1
Procedure, shortened: as §1

Row | Target | log2 fold change [1] | log2 fold change [2] | log2 fold change [3] | log2 fold change [4] | log2 fold change (Nexturastat A) | log2 fold change (vemurafenib) | log2 fold change [5] | log2 fold change [6] | log2 fold change (givinostat) | log2 fold change (barasertib) | log2 fold change [7] | log2 fold change (volasertib) | log2 fold change [8] | log2 fold change (epoxomicin) | log2 fold change [9] | log2 fold change [10] | log2 fold change [11] | log2 fold change (rosiglitazone) | log2 fold change [12] | log2 fold change [13]
1 | HBE1 (UniProt P02100) | inactive: 0.011 | inactive: -0.123 | inactive: 0.052 | inactive: 0.081 | inactive: 0.046 | inactive: 0.098 | inactive: -0.026 | inactive: -0.054 | inactive: -0.122 | inactive: 0.039 | inactive: 0.007 | inactive: -0.069 | inactive: -0.037 | inactive: 0.302 | inactive: 0.078 | inactive: -0.01 | inactive: 0 | inactive: 0.016 | inactive: -0.046 | inactive: 0
2 | HEATR6 (UniProt Q6AI08) | inactive: 0.101 | inactive: -0.01 | inactive: 0 | inactive: 0.012 | inactive: -0.079 | inactive: -0.094 | inactive: 0.024 | inactive: -0.038 | inactive: 0.05 | inactive: 0.069 | inactive: -0.082 | inactive: -0.27 | inactive: -0.006 | inactive: 0.08 | inactive: -0.067 |  | inactive: 0.075 | inactive: -0.016 | inactive: -0.027 | 
3 | HDAC4 (UniProt P56524) | inactive: 0.032 | inactive: -0.066 | inactive: -0.081 | inactive: -0.033 | inactive: 0.088 | inactive: -0.128 | inactive: -0.099 | inactive: 0.012 | inactive: 0.356 | inactive: -0.18 | inactive: -0.089 | inactive: -0.072 | inactive: 0 | inactive: -0.033 | inactive: 0.06 | inactive: -0.079 | inactive: -0.038 | inactive: 0.045 |  | inactive: -0.082
4 | GTF2H3 (UniProt Q13889) | inactive: -0.094 | inactive: -0.008 | inactive: -0.024 | inactive: 0 | inactive: 0.016 | inactive: -0.081 | inactive: -0.021 | inactive: -0.112 | inactive: 0.068 | inactive: -0.042 | inactive: 0.004 | inactive: -0.122 | inactive: 0.066 | inactive: -0.099 |  | inactive: 0.115 | inactive: 0.052 |  | inactive: 0.027 | active: -0.34
5 | HDDC2 (UniProt Q7Z4H3) | inactive: 0.009 | inactive: -0.03 | inactive: 0.014 | inactive: 0.029 | inactive: -0.139 | inactive: 0.004 | inactive: 0.034 | inactive: -0.018 | inactive: -0.067 | inactive: -0.022 | inactive: 0.008 | inactive: 0.08 | inactive: 0.014 | inactive: -0.006 |  | inactive: -0.063 | inactive: 0.025 |  | inactive: -0.102 | inactive: -0.066
6 | GSTM4 (UniProt Q03013) | inactive: 0.106 | inactive: 0.128 | inactive: -0.041 | inactive: 0.015 | inactive: -0.117 | inactive: 0.126 | inactive: -0.058 | inactive: -0.105 | inactive: 0.001 | inactive: -0.164 | inactive: 0.202 | inactive: 0.095 | inactive: 0.039 | inactive: -0.009 |  | inactive: -0.063 | inactive: 0.025 |  | inactive: -0.054 | inactive: -0.182
7 | HCFC1 isoform 4 (UniProt P51610) | inactive: -0.011 | inactive: -0.036 | inactive: 0.008 | inactive: 0.018 | inactive: -0.006 | inactive: 0.001 | inactive: 0.036 | inactive: -0.031 | inactive: 0.041 | inactive: -0.028 | inactive: 0.05 | inactive: 0.129 | inactive: -0.007 | inactive: -0.013 | inactive: -0.039 | inactive: -0.013 | inactive: -0.007 | inactive: 0.025 | inactive: -0.066 | inactive: 0.098
8 | H1FX (UniProt Q92522) | inactive: 0.081 | inactive: -0.059 | inactive: -0.106 | inactive: -0.222 | inactive: 0.278 | inactive: -0.083 | inactive: -0.077 | inactive: 0.176 | inactive: -0.034 | inactive: -0.129 | inactive: 0.166 | inactive: 0.415 | inactive: -0.003 | inactive: -0.201 |  | inactive: 0.041 | inactive: -0.115 |  | inactive: 0.287 | inactive: 0.129
9 | GSTK1 (UniProt Q9Y2Q3) | inactive: 0.041 | inactive: -0.019 | inactive: 0.031 | inactive: 0.064 | inactive: -0.023 | inactive: 0.117 | inactive: -0.012 | inactive: -0.029 | inactive: 0.019 | inactive: 0.03 | inactive: -0.062 | inactive: -0.187 | inactive: 0.049 | inactive: 0.041 | inactive: -0.027 | inactive: -0.054 | inactive: 0.065 | inactive: 0.03 | inactive: -0.098 | inactive: 0.064
10 | GYG1 (UniProt P46976) | inactive: 0.209 | inactive: 0.035 | inactive: -0.041 | inactive: -0.029 | inactive: 0.146 | inactive: 0.014 | inactive: 0.046 | inactive: 0.101 | inactive: 0.027 | inactive: -0.037 | inactive: 0.107 | inactive: 0.338 | inactive: 0 | inactive: -0.104 |  | inactive: -0.045 | inactive: 0.019 |  | inactive: 0.016 | inactive: -0.011
11 | GYPC (UniProt P04921) | inactive: 0.049 | inactive: -0.099 | inactive: 0.006 | inactive: 0.033 | inactive: -0.028 | inactive: 0.208 | inactive: 0.008 | inactive: -0.021 | inactive: 0.147 | inactive: -0.076 | inactive: 0.133 | inactive: 0.048 | inactive: -0.045 | inactive: -0.037 | inactive: -0.051 | inactive: -0.048 | inactive: -0.054 | inactive: -0.078 | inactive: -0.121 | inactive: 0.113
12 | GTF2E1 (UniProt P29083) | inactive: -0.005 | inactive: -0.057 | inactive: 0.011 | inactive: 0.115 | inactive: 0.024 | inactive: 0.05 | inactive: 0.082 | inactive: -0.006 | inactive: 0.091 | inactive: 0.166 | inactive: -0.267 | active: -0.567 | inactive: 0.096 | inactive: -0.015 |  | inactive: 0.023 | inactive: 0.072 |  | inactive: -0.034 | inactive: -0.084
13 | H2AZ1 (UniProt P0C0S5) | inactive: -0.051 | inactive: 0 | inactive: -0.174 | inactive: -0.01 | active: 0.75 | inactive: -0.209 | inactive: 0.233 | inactive: 0.074 | inactive: 0.454 | inactive: -0.083 | inactive: 0 | inactive: 0.065 | inactive: -0.084 | inactive: -0.311 |  | inactive: 0.103 | inactive: -0.071 |  | inactive: 0.435 | inactive: 0.026
14 | HEBP2 (UniProt Q9Y5Z4) | inactive: -0.011 | inactive: 0.013 | inactive: 0.015 | inactive: 0.036 | inactive: -0.016 | inactive: -0.012 | inactive: 0.034 | inactive: -0.024 | inactive: 0.003 | inactive: 0.025 | inactive: 0.011 | inactive: -0.011 | inactive: 0.024 | inactive: 0.026 | inactive: 0.017 | inactive: -0.052 | inactive: -0.038 | inactive: 0.033 | inactive: -0.035 | inactive: 0
15 | HDAC6 (UniProt Q9UBN7) | inactive: 0.016 | inactive: -0.041 | inactive: 0.022 | inactive: -0.091 | active: 0.522 | inactive: 0.004 | inactive: -0.018 | inactive: -0.015 | active: 1.03 | inactive: 0 | inactive: 0.013 | inactive: 0.005 | inactive: 0.014 | inactive: -0.069 |  | inactive: -0.157 | inactive: 0.068 |  | inactive: 0.058 | inactive: -0.04
16 | HEXA (UniProt P06865) | inactive: -0.046 | inactive: 0.022 | inactive: -0.019 | inactive: 0.004 | inactive: -0.035 | inactive: -0.006 | inactive: -0.023 | inactive: -0.023 | inactive: -0.018 | inactive: -0.001 | active: -0.423 | active: -0.479 | inactive: -0.028 | inactive: -0.012 |  | inactive: -0.002 | inactive: -0.021 |  | inactive: -0.02 | active: -0.63
17 | HBS1L isoform 2 (UniProt Q9Y450) | inactive: 0.076 | inactive: -0.048 | inactive: 0.125 | inactive: 0.133 | inactive: 0.035 | inactive: 0.071 | inactive: 0.124 | inactive: 0.026 | inactive: 0.043 | inactive: -0.004 | inactive: -0.08 | inactive: -0.199 | inactive: 0.019 | inactive: 0.008 | inactive: -0.046 | inactive: -0.189 | inactive: -0.082 | inactive: 0.01 | inactive: -0.198 | inactive: -0.218

Rewritten in CSV form: entries from further up.
Row,Target,log2 fold change [1],log2 fold change [2],log2 fold change [3],log2 fold change [4],log2 fold change (Nexturastat A),log2 fold change (vemurafenib),log2 fold change [5],log2 fold change [6],log2 fold change (givinostat),log2 fold change (barasertib),log2 fold change [7],log2 fold change (volasertib),log2 fold change [8],log2 fold change (epoxomicin),log2 fold change [9],log2 fold change [10],log2 fold change [11],log2 fold change (rosiglitazone),log2 fold change [12],log2 fold change [13]
13,H2AZ1 (UniProt P0C0S5),inactive: -0.051,inactive: 0,inactive: -0.174,inactive: -0.01,active: 0.75,inactive: -0.209,inactive: 0.233,inactive: 0.074,inactive: 0.454,inactive: -0.083,inactive: 0,inactive: 0.065,inactive: -0.084,inactive: -0.311,,inactive: 0.103,inactive: -0.071,,inactive: 0.435,inactive: 0.026
14,HEBP2 (UniProt Q9Y5Z4),inactive: -0.011,inactive: 0.013,inactive: 0.015,inactive: 0.036,inactive: -0.016,inactive: -0.012,inactive: 0.034,inactive: -0.024,inactive: 0.003,inactive: 0.025,inactive: 0.011,inactive: -0.011,inactive: 0.024,inactive: 0.026,inactive: 0.017,inactive: -0.052,inactive: -0.038,inactive: 0.033,inactive: -0.035,inactive: 0
15,HDAC6 (UniProt Q9UBN7),inactive: 0.016,inactive: -0.041,inactive: 0.022,inactive: -0.091,active: 0.522,inactive: 0.004,inactive: -0.018,inactive: -0.015,active: 1.03,inactive: 0,inactive: 0.013,inactive: 0.005,inactive: 0.014,inactive: -0.069,,inactive: -0.157,inactive: 0.068,,inactive: 0.058,inactive: -0.04
